Data source: PubChem BioAssay AID1671195 (Yale University, 2021)

- Aim: 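Genes whose knockdown alters LDL uptake in liver cancer cells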 (primary screen)
- Cell system: human Huh7 hepatoma cells
- Reagent: siRNA pool against human genes, 18 nM
- Duration: about 2 to 2.5 days of knockdown, then 8 h LDL uptake
- Challenge: DiI-labelled LDL at 30 µg/ml for 8 h, in lipoprotein-deficient serum medium
- Detection: 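Fluorescent LDL signal imaged in cells, scaled to the plate median, robust z-score for each replicate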
- Reading the numbers: robust z-score: higher = more LDL uptake after knockdown
- Rule for the call: 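a gene counts as active if at least two replicate z-scores exceed ±2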
The deposit covers about 22,000 reagents; below is an unselected part. About 1,510 of them (6.9%) were called active. 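Active includes knockdowns raising or lowering LDL uptake; positive z-scores mean more uptake, negative mean less.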

For LOC401471 (GeneID 401471), what does the deposit list?
robust z-score, replicate 1: -0.191; robust z-score, replicate 2: 0.455; robust z-score, replicate 3: -0.0018; activity call: inactive

With IDO1 (GeneID 3620), what does the deposit list?
robust z-score, replicate 1: -0.332; robust z-score, replicate 2: 0.127; robust z-score, replicate 3: -0.0638; activity call: inactive

What is on record for ABCB1 (GeneID 5243)?
robust z-score, replicate 1: -0.216; robust z-score, replicate 2: -0.0252; robust z-score, replicate 3: -0.0657; activity call: inactive

For ERN1 (GeneID 2081), how do the results read?
robust z-score, replicate 1: 1.89; robust z-score, replicate 2: 1.49; robust z-score, replicate 3: 1.88; activity call: inactive

With AURKB (GeneID 9212), how do the results read?
robust z-score, replicate 1: -0.193; robust z-score, replicate 2: 0.363; robust z-score, replicate 3: -0.31; activity call: inactive

Which result is listed for KIF2C (GeneID 11004)?
robust z-score, replicate 1: 0.0711; robust z-score, replicate 2: 1.03; robust z-score, replicate 3: -0.0421; activity call: inactive

What is on record for RCE1 (GeneID 9986)?
robust z-score, replicate 1: 0.957; robust z-score, replicate 2: 0.415; robust z-score, replicate 3: 1.12; activity call: inactive

What did the screen give for ST8SIA4 (GeneID 7903)?
robust z-score, replicate 1: -0.686; robust z-score, replicate 2: -0.0973; robust z-score, replicate 3: -0.453; activity call: inactive

With RNF113B (GeneID 140432), what does the deposit list?
robust z-score, replicate 1: -0.488; robust z-score, replicate 2: -1.71; robust z-score, replicate 3: 0.266; activity call: inactive

For SPATA31E1 (GeneID 286234), how do the results read?
robust z-score, replicate 1: 0.48; robust z-score, replicate 2: 0.389; robust z-score, replicate 3: 0.117; activity call: inactive

Quoted from the entries so far for reference:
RNF113B (GeneID 140432) — robust z-score, replicate 1 = -0.488; robust z-score, replicate 2 = -1.71; robust z-score, replicate 3 = 0.266; activity call = inactive
SPATA31E1 (GeneID 286234) — robust z-score, replicate 1 = 0.48; robust z-score, replicate 2 = 0.389; robust z-score, replicate 3 = 0.117; activity call = inactive

The results go on:
With LOC441470 (retired record) (GeneID 441470), what was measured?
robust z-score, replicate 1: 0.85; robust z-score, replicate 2: 0.281; robust z-score, replicate 3: 0.178; activity call: inactive

Which result is listed for ZMYND12 (GeneID 84217)?
robust z-score, replicate 1: 1.22; robust z-score, replicate 2: 1.42; robust z-score, replicate 3: 0.675; activity call: inactive

For LPAR5 (GeneID 57121), how do the results read?
robust z-score, replicate 1: -0.47; robust z-score, replicate 2: -1.21; robust z-score, replicate 3: -1.16; activity call: inactive

What is on record for C1orf167 (GeneID 284498)?
robust z-score, replicate 1: -1.21; robust z-score, replicate 2: -0.886; robust z-score, replicate 3: -1.06; activity call: inactive

Which result is listed for LOC256283 (retired record) (GeneID 256283)?
robust z-score, replicate 1: -0.501; robust z-score, replicate 2: -0.24; robust z-score, replicate 3: -0.301; activity call: inactive

Which result is listed for SLC16A7 (GeneID 9194)?
robust z-score, replicate 1: -0.0214; robust z-score, replicate 2: 1.05; robust z-score, replicate 3: 0.635; activity call: inactive
